Measured values reported in US20200131227A1, “POLYPEPTIDE WITH TUMOUR BINDING ACTIVITY” (RUPRECHT-KARLS-UNIVERSITÄT HEIDELBERG, priority 2017, published 2020).
No constants are given. Whether binding was seen depends on the method and setting. Some binding calls cover weakened binding; strength is not graded here.

Sequences of proteins named here, by UniProt entry; tags and fusion partners are left off. A change or cut given only in a name is not applied to a line headed by its entry.
UniProt P06756: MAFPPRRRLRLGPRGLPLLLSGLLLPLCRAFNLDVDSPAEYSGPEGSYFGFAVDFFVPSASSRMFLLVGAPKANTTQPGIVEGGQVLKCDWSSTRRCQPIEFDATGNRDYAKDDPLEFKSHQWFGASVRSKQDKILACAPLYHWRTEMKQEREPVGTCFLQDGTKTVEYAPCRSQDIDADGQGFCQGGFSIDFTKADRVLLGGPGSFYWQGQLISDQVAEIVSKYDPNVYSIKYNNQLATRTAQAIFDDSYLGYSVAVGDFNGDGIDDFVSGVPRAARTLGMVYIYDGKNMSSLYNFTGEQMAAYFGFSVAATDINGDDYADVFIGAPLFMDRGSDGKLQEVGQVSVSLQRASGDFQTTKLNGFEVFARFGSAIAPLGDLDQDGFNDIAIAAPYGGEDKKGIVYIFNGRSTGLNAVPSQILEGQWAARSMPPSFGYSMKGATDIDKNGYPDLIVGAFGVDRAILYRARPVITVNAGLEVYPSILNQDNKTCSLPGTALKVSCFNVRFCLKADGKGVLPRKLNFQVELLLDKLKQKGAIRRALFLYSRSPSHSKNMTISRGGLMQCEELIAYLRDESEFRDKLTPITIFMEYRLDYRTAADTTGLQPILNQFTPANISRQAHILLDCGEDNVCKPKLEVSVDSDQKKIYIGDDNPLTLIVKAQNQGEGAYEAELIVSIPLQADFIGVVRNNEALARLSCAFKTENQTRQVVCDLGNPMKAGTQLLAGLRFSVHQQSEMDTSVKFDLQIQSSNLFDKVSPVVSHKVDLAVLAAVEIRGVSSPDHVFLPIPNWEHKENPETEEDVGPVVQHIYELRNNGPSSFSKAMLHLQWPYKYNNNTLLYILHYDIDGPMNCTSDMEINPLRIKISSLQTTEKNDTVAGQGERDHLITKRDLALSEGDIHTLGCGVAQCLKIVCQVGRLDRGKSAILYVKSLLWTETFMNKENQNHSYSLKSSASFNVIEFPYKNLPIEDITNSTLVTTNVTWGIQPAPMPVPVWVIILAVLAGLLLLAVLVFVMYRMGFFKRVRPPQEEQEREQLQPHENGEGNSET
UniProt P18564: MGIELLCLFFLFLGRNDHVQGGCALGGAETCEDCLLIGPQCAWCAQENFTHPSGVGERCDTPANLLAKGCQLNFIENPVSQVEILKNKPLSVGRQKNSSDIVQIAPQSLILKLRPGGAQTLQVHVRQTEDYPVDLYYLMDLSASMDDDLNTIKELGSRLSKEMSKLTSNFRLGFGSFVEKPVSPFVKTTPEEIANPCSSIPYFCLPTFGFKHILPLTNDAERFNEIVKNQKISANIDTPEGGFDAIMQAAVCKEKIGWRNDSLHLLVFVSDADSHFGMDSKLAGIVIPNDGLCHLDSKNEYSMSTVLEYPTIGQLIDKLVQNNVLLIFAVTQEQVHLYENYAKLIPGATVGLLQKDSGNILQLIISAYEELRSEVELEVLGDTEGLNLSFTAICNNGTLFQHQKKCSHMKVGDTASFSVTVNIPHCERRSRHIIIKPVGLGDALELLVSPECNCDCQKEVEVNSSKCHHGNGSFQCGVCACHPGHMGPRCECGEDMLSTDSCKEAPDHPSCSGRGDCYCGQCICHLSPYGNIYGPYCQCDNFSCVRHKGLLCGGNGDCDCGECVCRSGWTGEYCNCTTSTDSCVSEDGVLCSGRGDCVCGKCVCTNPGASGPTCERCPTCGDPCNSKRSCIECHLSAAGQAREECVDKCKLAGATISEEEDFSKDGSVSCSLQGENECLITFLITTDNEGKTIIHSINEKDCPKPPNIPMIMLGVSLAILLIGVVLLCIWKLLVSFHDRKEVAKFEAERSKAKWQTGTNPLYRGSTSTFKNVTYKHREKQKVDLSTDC

Molecular target: integrin αvβ6 (ITGαvβ6) as expressed on human carcinoma cell lines and tumor tissue sections (human) (UniProt P06756+P18564)
Experiment: uptake of 125I-labelled peptides on HNSCC cell lines, 60 min

binding: binds
Binder: GRCTRRGDLAFICYPD (disulfide bond between the two Cys; 125I on the tyrosine) [SFLAP1]
